# From patent publication EP1283052A1, “Pharmaceutical composition containing caspase-8 and /or caspase-9 useful for overcoming glucocorticoid- and cancer therapy-induced apoptosis of tumours” (Deutsches Krebsforschungszentrum Stiftung des öffentlichen …, priority 2001, dated 2003)
# At least one structure is not confirmed: it was looked up by name or label, or the drawing left a doubt.
# How the values were obtained:
# Format in all cases: cell-based, human
# [1] = tested on: P5 and HeLa cervix carcinoma cells; experiment: Apoptosis by annexin-V/FITC staining and flow cytometry in cervix carcinoma cells
# Method: (§1) • (a) Human epidermoid lung cancer cells (P693) were injected into nude mice. At a tumour volume of 500 mm^3 weekly treatment with cisplatin (5mg/kg/week) was started. Cisplatin was injected intraperitoneally in the absence (CIS) or presence (DEX/CIS) of DEX which was added to the drinking water (0.28 mg/L) for the duration of the experiment. […] As controls, tumor growth of xenografts from mice which received neither cisplatin nor DEX (CO) or from mice which received DEX only (DEX) was determined. The tumour volume in each animal was measured at weekly intervals for a period of 5 weeks. Data are presented as the means +/- SD of 6 to 8 animals. • (b) The human cervical carcinoma cell lines HeLa and P5 were γ-irradiated (10 Gy) or treated with cisplatin (2 µg/ml) in the absence (white bars) or presence (black bars) of DEX (1 µM). The percentage of apoptosis was measured in untreated (CO) and stimulated cells by annexin-staining and FACS-analysis at the time points indicated. (c) P5, P693 and human leukemic T cells (CEM) cells were treated with cisplatin (2 µg/ml) in the absence or presence of DEX as indicated. 24 and 48 h following treatment cells were lysed and caspase-3 activity was determined by a fluorescent caspase-3 assay and spectroscopy.
# [2] = tested on: caspase-3; experiment: Fluorometric caspase-3 activity assay in CEM leukemic T cells; details: Fig. 1c
# Method: as §1
# [3] = tested on: caspase-9 and -6; experiment: Fluorometric caspase-6/9 activity assay in P693 cells; details: carcinoma cells, Fig. 5a
# Method: • (a) P693 and CEM cells were treated with cisplatin (2 µg/ml) in the absence or presence of DEX (1 µM) as indicated. 24 and 48 h following treatment cells were lysed and caspase-9 activity was determined using a fluorescent caspase-9 assay and spectroscopy. • (b) P5 and CEM cells were treated as described above. 24 h after stimulation Apaf-1 was immunoprecipitated from the cell extracts using a […]. Aliquotes of the precipitates were separated by three different gels and analysed by Western blotting using rabbit polyclonal Apaf-1, mAb cytochrome c or caspase-9 antibodies. The antibody heavy chain band (IgGH) ensures equal conditions. […]
# • (A) Cell culture. […] The mice were given 0.28 mg/L DEX in drinking water, and the amount of water consumed was monitored. […] The tumour volumes were measured using callipers, and calculated using, as an approximation, the formula for volume of a hemi-ellipsoid: π(width^2 x length)/6. […] Early apoptotic changes were identified by staining of cells with fluoresceinthiocyanate (FITC)-conjugated annexin V and propidium iodide (Becton Dickinson, Heidelberg, Germany) and analysed by flow cytometry (FACScan, Becton Dickinson) as described (Herr et al., EMBO J. 16 (1997), 6200-6208) • (E) Immunohistochemistry. […] Bound antibodies were detected by FITC conjugated anti-mouse or anti-rabbit IgG (Molecular Probes Europe, Leiden, The Netherlands). […]
compound,measurement,setting,value
"C[C@@H]1C[C@H]2[C@@H]3CCC4=CC(=O)C=C[C@]4(C)[C@@]3(F)[C@@H](O)C[C@]2(C)[C@@]1(O)C(=O)CO [DEX, dexamethasone]",viability and proliferation observed by microscopy,[1]; DEX co-treated cells (with cisplatin or γ-irradiation),remained viable and proliferated
same,level of apoptosis induced by cisplatin or γ-irradiation,"[1]; combined DEX treatment (1 µM), Fig. 1b",strongly suppressed the level of apoptosis
same,caspase-3 activity,[2]; DEX alone,mediates an induction of caspase-3
same,caspase-3 activity,[2]; cisplatin-induced activity in the presence of DEX,not affected
same,caspase-6/9 activity,[3]; DEX alone,had no influence
same,caspase-6/9 activity,[3]; cisplatin in the presence of DEX 1 µM,completely blocked
